Laboratory results reported in patent US10466233B2, “Genetically encoded probe for quantification of lactate and methods for quantifying metabolic rates and lactate transport” (CENTRO DE ESTUDIOS CIENTIFICOS DE VALDIVIA, priority 2012, dated 2019).

Test: Fluorescence ratio (mTFP/Venus) response of purified lactate sensor to lactate in vitro
Format: binding
Protocol: Protein Purification. Plasmid constructs were transformed into E. coli BL21 (DE3). A single colony was inoculated in 100 ml of LB medium with […] ampicillin (without IPTG) and shaken in the dark for 2-3 days. Cells were collected by centrifugation at 5000 rpm (4° C.) for 10 min and disrupted by sonication (Hielscher Ultrasound Technology) in 5 mL of Tris-HCl buffer pH 8.0. A cell-free extract was obtained by centrifugation at 10,000 rpm (4° C.) for 1 hour and filtering of the supernatant (0.45 μm). Proteins were purified using a Nickel resin (His Bin® from Novagen) as recommended by the manufacturer. Eluted proteins were quantified using the Biuret method and stored at −20° C. in 20% glycerol.
Fluorescence Measurements.

Q: With “Variant 7: Most responsive FRET lactate sensor: mTFP, full length L1dR from E. coli, no linkers, Venus; SEQ ID NO 7” as the substance, how does the “lower limit of lactate quantification” value read?
A: The value was 1 µM.

Q: And the “upper limit of lactate quantification” value?
A: The value was 10 mM.

Q: What about the sensitivity in vitro (similar to the most sensitive enzyme-based commercial kit) of the same substance?
A: Its sensitivity in vitro is about 50 pmol.
